Experimental data from patent publication EP3222276B1, “PHARMACEUTICAL COMPOSITION FOR TREATING CANCER AND BIOMARKER FOR DRUG SCREENING” (National Defense Medical Center, priority 2014, dated 2016).
These are yes or no findings as the source states them, for the method shown. In cells and extracts the contact can be indirect. Some binding calls cover weakened binding; strength is not graded here.

The chains behind the UniProt entries cited, without tags or fusion partners. Where a name states a change or a piece, a line headed by the entry shows the natural chain unless it says otherwise.
UniProt P53355: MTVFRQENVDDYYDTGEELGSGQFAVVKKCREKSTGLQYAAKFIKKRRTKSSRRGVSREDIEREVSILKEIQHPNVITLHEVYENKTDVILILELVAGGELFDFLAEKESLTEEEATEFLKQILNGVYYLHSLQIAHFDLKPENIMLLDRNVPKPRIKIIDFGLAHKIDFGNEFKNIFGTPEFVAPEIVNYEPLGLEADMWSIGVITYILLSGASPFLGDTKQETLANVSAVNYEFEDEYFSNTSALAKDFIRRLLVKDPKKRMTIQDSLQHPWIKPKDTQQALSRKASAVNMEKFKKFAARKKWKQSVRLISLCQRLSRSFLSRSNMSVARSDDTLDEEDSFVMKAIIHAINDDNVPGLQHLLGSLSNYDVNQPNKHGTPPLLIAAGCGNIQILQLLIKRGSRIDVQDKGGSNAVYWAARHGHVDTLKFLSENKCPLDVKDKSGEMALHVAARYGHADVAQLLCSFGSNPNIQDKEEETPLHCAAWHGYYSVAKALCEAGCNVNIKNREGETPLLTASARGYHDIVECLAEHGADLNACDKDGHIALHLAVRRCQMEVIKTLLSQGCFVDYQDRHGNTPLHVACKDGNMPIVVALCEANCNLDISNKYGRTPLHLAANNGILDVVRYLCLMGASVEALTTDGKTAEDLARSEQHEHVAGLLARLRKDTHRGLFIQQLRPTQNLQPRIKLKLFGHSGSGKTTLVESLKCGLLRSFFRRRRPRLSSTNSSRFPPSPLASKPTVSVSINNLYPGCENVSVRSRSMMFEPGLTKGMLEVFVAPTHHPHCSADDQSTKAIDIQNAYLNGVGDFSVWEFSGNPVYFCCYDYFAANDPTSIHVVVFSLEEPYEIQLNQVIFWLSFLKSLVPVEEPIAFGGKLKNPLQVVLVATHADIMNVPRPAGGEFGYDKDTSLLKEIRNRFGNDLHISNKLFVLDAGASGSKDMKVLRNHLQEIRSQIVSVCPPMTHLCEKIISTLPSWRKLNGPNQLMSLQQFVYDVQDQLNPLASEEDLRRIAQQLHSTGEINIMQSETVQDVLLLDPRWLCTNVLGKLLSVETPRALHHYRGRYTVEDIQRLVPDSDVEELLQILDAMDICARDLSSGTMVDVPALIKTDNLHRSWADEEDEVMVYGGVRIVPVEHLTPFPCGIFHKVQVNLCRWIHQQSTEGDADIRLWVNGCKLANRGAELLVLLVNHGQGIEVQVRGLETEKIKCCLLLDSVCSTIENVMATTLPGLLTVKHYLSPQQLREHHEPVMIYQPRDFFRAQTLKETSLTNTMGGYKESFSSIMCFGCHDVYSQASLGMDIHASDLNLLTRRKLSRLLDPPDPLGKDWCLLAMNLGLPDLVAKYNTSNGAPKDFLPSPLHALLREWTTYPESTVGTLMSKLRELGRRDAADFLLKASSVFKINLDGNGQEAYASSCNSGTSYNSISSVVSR

Biological target: DAPK protein (endogenous, ACHN cells) (Homo sapiens (Human)) (UniProt P53355)
Experiment: co-immunoprecipitation of endogenous proteins from ACHN cells, immunoblotting

binding: binds
Substance: c-Raf protein (endogenous, ACHN cells) (from UniProt P04049 1-648) (enzyme)
